Patent publication US20170240604A1 (Harvard, published 2017)
These are yes or no findings as the source states them, for the method shown. Some results given as binding are weak or reduced against the parent protein; the word gives no strength.

Experiments:
RalA [1] = molecular target: T1, RalA (UniProt P11233 1-178, limits assumed); test: statement in the description; data in FIG. 38A (yeast surface display)
T1 construct: also called RalA protein
T1 sequence: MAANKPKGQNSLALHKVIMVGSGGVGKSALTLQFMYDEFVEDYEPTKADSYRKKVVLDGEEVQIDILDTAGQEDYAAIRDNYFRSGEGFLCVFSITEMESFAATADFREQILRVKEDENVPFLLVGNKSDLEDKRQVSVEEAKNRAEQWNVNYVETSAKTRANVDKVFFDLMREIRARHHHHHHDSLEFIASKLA

RalA [2] = molecular target: T1, RalA; test: yeast surface display, flow cytometry; APC-A = labeled target, FITC-A = display level
RalA [3] = molecular target: T1, RalA; test: statement in the description; data in FIG. 38B (yeast surface display)

| Binder | binding (RalA [1]) | binding (RalA [2]) | binding (RalA [3]) |
| --- | --- | --- | --- |
| GPRRPRCPGDDASISDLLLYWLRLDRYLWAVA [RL01] | binds | binds |  |
| GPRRPRCPGDDASIRDLVMYWYRLYFYLEAVA [RR01] |  | binds | binds |
